Some entries share one result that the patent states for a list of compounds.
How the values were obtained:
[1] = system: powdery mildew fungi (Sphaerotheca fuliginea); test: Cucumber powdery mildew control, foliar spray before inoculation (Test Examples 17-19); type: in vivo; conditions: cucumber (cv; Sagamihanjiro), observed 8 days after inoculation
[2] = system: barley net blotch fungi (Pyrenophora teres); test: Barley net blotch control on barley, foliar spray before inoculation (Test Examples 8-10, Comparative Test Example); type: in vivo; conditions: 500 ppm foliar spray, barley (cv; Mikamo Golden), inoculated 2 days after spraying
[3] = system: barley scald fungi (Rhynchosporium secalis); test: Barley scald / leaf blotch control, foliar spray before inoculation (Test Examples 22-23); type: in vivo; conditions: 200 ppm foliar spray, barley (cv; Mikamo Golden), inoculated 2 days after spraying
[4] = system: wheat leaf blotch fungi (Septoria tritici); test: Wheat leaf blotch control on wheat, foliar spray before inoculation (Test Examples 13-15); type: in vivo; conditions: wheat (cv; Apogee), inoculated 4 days after spraying
[5] = system: kidney bean sclerotinia rot fungi (Sclerotinia sclerotiorum); test: Kidney bean sclerotinia rot control, foliar spray before inoculation (Test Examples 11-12); conditions: kidney bean (cv; Nagauzurasaitou), observed 4 days after inoculation
[6] = system: soybean rust fungi (phakopsora pachyrhizi); test: Soybean rust control, foliar spray before inoculation (Test Example 20); type: in vivo; conditions: 200 ppm foliar spray, soybean (cv: Kurosengoku), inoculated 2 days after spraying
[7] = system: cucumber target spot fungi (Corynespora cassiicola); test: Cucumber target spot control, foliar spray before inoculation (Test Examples 27-28); type: in vivo; conditions: cucumber (cv; Sagamihanjiro), inoculated 1 day after spraying
[8] = system: cucumber anthracnose fungi (Colletotrichum lagenarium); test: Cucumber anthracnose control, foliar spray before inoculation (Test Examples 29-30); type: in vivo; conditions: 200 ppm foliar spray, cucumber (cv; Sagamihanjiro), inoculated 1 day after spraying

SMILES	lesion area compared to the lesion area in untreated plants ([1]; 500 ppm foliar spray) [%]	lesion area compared to the lesion area in untreated plants [2] [%]	lesion area compared to the lesion area in untreated plants ([4]; 500 ppm foliar spray) [%]	lesion area compared to the lesion area in untreated plants [6] [%]	also measured
Cn1nnn(-c2cccc(Cl)c2COc2ccn(-c3ccc(F)cc3)n2)c1=O [Present compound 2, 1-(2-{[1-(4-fluorophenyl)-1H-pyrazole-3-yl]oxymethyl}-3-chlorophenyl)-4-methyl-1,4-dihydrotetrazole-5-one]	≤ 30	≤ 30	–	–	–
COc1ccc(-n2ccc(OCc3c(Cl)cccc3-n3nnn(C)c3=O)n2)cc1 [Present compound 5, 1-(2-{[1-(4-methoxyphenyl)-1H-pyrazole-3-yl]oxymethyl}-3-chlorophenyl)-4-methyl-1,4-dihydrotetrazole-5-one]	≤ 30	≤ 30	≤ 30	–	lesion area compared to the lesion area in untreated plants [3]: ≤ 30%; lesion area compared to the lesion area in untreated plants ([5]; 500 ppm foliar spray): ≤ 30%
Cn1nnn(-c2cccc(Br)c2COc2ccn(-c3ccc(F)cc3)n2)c1=O [Present compound 6, 1-(2-{[1-(4-fluorophenyl)-1H-pyrazole-3-yl]oxymethyl}-3-bromophenyl)-4-methyl-1,4-dihydrotetrazole-5-one]	≤ 30	≤ 30	≤ 30	–	–
COc1ccc(-n2ccc(OCc3c(Br)cccc3-n3nnn(C)c3=O)n2)cc1 [Present compound 8, 1-(2-{[1-(4-methoxyphenyl)-1H-pyrazole-3-yl]oxymethyl}-3-bromophenyl)-4-methyl-1,4-dihydrotetrazole-5-one]	–	≤ 30	≤ 30	≤ 30	lesion area compared to the lesion area in untreated plants [3]: ≤ 30%; lesion area compared to the lesion area in untreated plants ([5]; 500 ppm foliar spray): ≤ 30%
Cc1ccc(-n2ccc(OCc3c(C)cccc3-n3nnn(C)c3=O)n2)c(F)c1 [Present compound 23, 1-(2-{[1-(4-methyl-2-fluorophenyl)-1H-pyrazole-3-yl]oxymethyl}-3-methylphenyl)-4-methyl-1,4-dihydrotetrazole-5-one]	–	–	–	≤ 30	lesion area compared to the lesion area in untreated plants [3]: ≤ 30%
COc1cccc(-n2nnn(C)c2=O)c1COc1ccn(-c2ccc(F)cc2)n1 [Present compound 25, 1-(2-{[1-(4-fluorophenyl)-1H-pyrazole-3-yl]oxymethyl}-3-methoxyphenyl)-4-methyl-1,4-dihydrotetrazole-5-one]	≤ 30	≤ 30	≤ 30	–	–
COc1cccc(-n2nnn(C)c2=O)c1COc1ccn(-c2ccc(C)cc2)n1 [Present compound 27, 1-(2-{[1-(4-methylphenyl)-1H-pyrazole-3-yl]oxymethyl}-3-methoxyphenyl)-4-methyl-1,4-dihydrotetrazole-5-one]	–	≤ 30	–	–	–
COc1ccc(-n2ccc(OCc3c(OC)cccc3-n3nnn(C)c3=O)n2)cc1 [Present compound 28, 1-(2-{[1-(4-methoxyphenyl)-1H-pyrazole-3-yl]oxymethyl}-3-methoxyphenyl)-4-methyl-1,4-dihydrotetrazole-5-one]	–	≤ 30	≤ 30	–	–
Cn1nnn(-c2cccc(C(F)F)c2COc2ccn(-c3ccc(Cl)cc3)n2)c1=O [Present compound 31, 1-(2-{[1-(4-chlorophenyl)-1H-pyrazole-3-yl]oxymethyl}-3-difluoromethylphenyl)-4-methyl-1,4-dihydrotetrazole-5-one]	≤ 30	≤ 30	≤ 30	–	lesion area compared to the lesion area in untreated plants [3]: ≤ 30%
CCc1cccc(-n2nnn(C)c2=O)c1COc1ccn(-c2ccc(Cl)cc2)n1 [Present compound 33, 1-(2-{[1-(4-chlorophenyl)-1H-pyrazole-3-yl]oxymethyl}-3-ethylphenyl)-4-methyl-1,4-dihydrotetrazole-5-one]	–	–	–	–	lesion area compared to the lesion area in untreated plants [3]: ≤ 30%; lesion area compared to the lesion area in untreated plants ([1]; 200 ppm foliar spray): ≤ 30%; lesion area compared to the lesion area in untreated plants ([7]; 50 ppm foliar spray): ≤ 30%; lesion area compared to the lesion area in untreated plants ([4]; 200 ppm foliar spray): ≤ 30%
CCCCc1cccc(-n2nnn(C)c2=O)c1COc1ccn(-c2ccc(Cl)cc2)n1 [Present compound 38, 1-(2-{[1-(4-chlorophenyl)-1H-pyrazole-3-yl]oxymethyl}-3-butylphenyl)-4-methyl-1,4-dihydrotetrazole-5-one]	–	≤ 30	≤ 30	–	–
CCn1nnn(-c2cccc(C)c2COc2ccn(-c3ccc(Cl)cc3)n2)c1=O [Present compound 44, 1-(2-{[1-(4-chlorophenyl)-1H-pyrazole-3-yl]oxymethyl}-3-methylphenyl)-4-ethyl-1,4-dihydrotetrazole-5-one]	–	≤ 30	≤ 30	–	–
Cc1cccc(-n2nnn(C)c2=O)c1COc1ccn(C2CCCCC2)n1 [Present compound 50, 1-{2-[(1-cyclohexyl-1H-pyrazole-3-yl)oxymethyl]-3-methylphenyl}-4-methyl-1,4-dihydrotetrazole-5-one]	–	–	–	≤ 30	–
Cc1cccc(-n2nnn(C)c2=O)c1COc1ccn(-c2ccc(OC(F)(F)F)cc2)n1 [Present compound 51, 1-(2-{[1-(4-trifluoromethoxyphenyl)-1H-pyrazole-3-yl]oxymethyl}-3-methylphenyl)-4-methyl-1,4-dihydrotetrazole-5-one]	–	–	–	≤ 30	–
Cc1cccc(-n2nnn(C)c2=O)c1COc1ccn(-c2cccc(Cl)c2)n1 [Present compound 72, 1-(2-{[1-(3-chlorophenyl)-1H-pyrazole-3-yl]oxymethyl}-3-methylphenyl)-4-methyl-1,4-dihydrotetrazole-5-one]	≤ 30	–	–	–	lesion area compared to the lesion area in untreated plants [8]: ≤ 30%; lesion area compared to the lesion area in untreated plants ([7]; 200 ppm foliar spray): ≤ 30%; lesion area compared to the lesion area in untreated plants ([5]; 500 ppm foliar spray): ≤ 30%
Cc1ccc(C)c(-n2nnn(C)c2=O)c1COc1ccn(-c2ccc(Cl)cc2)n1 [Present compound 73]	–	–	–	–	lesion area compared to the lesion area in untreated plants [8]: ≤ 30%; lesion area compared to the lesion area in untreated plants ([7]; 200 ppm foliar spray): ≤ 30%
Cc1cccc(-n2nnn(C)c2=O)c1COc1ccn(-c2ccc(C(=O)C(F)(F)F)cc2)n1 [Present compound 74, 1-(2-{[1-(4-trifluoroacetylphenyl)-1H-pyrazole-3-yl]oxymethyl}-3-methylphenyl)-4-methyl-1,4-dihydrotetrazole-5-one]	–	–	–	–	lesion area compared to the lesion area in untreated plants ([7]; 200 ppm foliar spray): ≤ 30%; lesion area compared to the lesion area in untreated plants ([4]; 200 ppm foliar spray): ≤ 30%
Cc1cccc(-n2nnn(C)c2=O)c1COc1ccn(-c2ccccc2F)n1 [Present compound 76, 1-(2-{[1-(2-fluorophenyl)-1H-pyrazole-3-yl]oxymethyl}-3-methylphenyl)-4-methyl-1,4-dihydrotetrazole-5-one]	≤ 30	–	–	–	lesion area compared to the lesion area in untreated plants [8]: ≤ 30%; lesion area compared to the lesion area in untreated plants ([7]; 200 ppm foliar spray): ≤ 30%; lesion area compared to the lesion area in untreated plants ([5]; 200 ppm foliar spray): ≤ 30%
COc1ccccc1-n1ccc(OCc2c(C)cccc2-n2nnn(C)c2=O)n1 [Present compound 78, 1-(2-{[1-(2-methoxyphenyl)-1H-pyrazole-3-yl]oxymethyl}-3-methylphenyl)-4-methyl-1,4-dihydrotetrazole-5-one]	–	–	–	≤ 30	lesion area compared to the lesion area in untreated plants ([7]; 200 ppm foliar spray): ≤ 30%; lesion area compared to the lesion area in untreated plants ([5]; 200 ppm foliar spray): ≤ 30%
Cc1c(F)ccc(-n2nnn(C)c2=O)c1COc1ccn(-c2ccc(Cl)cc2)n1 [Present compound 84, 1-(2-{[1-(4-chlorophenyl)-1H-pyrazole-3-yl]oxymethyl}-3-methyl-4-fluorophenyl)-4-methyl-1,4-dihydrotetrazole-5-one]	–	–	–	–	lesion area compared to the lesion area in untreated plants [8]: ≤ 30%
Cc1cccc(-n2nnn(C)c2=O)c1COc1ccn(-c2ccc(C(F)(F)F)cc2)n1 [Present compound 91, 1-(2-{[1-(4-trifluoromethylphenyl)-1H-pyrazole-3-yl]oxymethyl}-3-methylphenyl)-4-methyl-1,4-dihydrotetrazole-5-one]	–	–	–	≤ 30	–
CCOc1ccccc1-n1ccc(OCc2c(C)cccc2-n2nnn(C)c2=O)n1 [Present compound 94, 1-(2-{[1-(2-ethoxyphenyl)-1H-pyrazole-3-yl]oxymethyl}-3-methylphenyl)-4-methyl-1,4-dihydrotetrazole-5-one]	–	–	–	≤ 30	–
Cc1cccc(-n2nnn(C)c2=O)c1COc1ccn(-c2ccccc2OC(C)C)n1 [Present compound 95, 1-(2-{[1-(2-isopropoxyphenyl)-1H-pyrazole-3-yl]oxymethyl}-3-methylphenyl)-4-methyl-1,4-dihydrotetrazole-5-one]	–	–	–	≤ 30	lesion area compared to the lesion area in untreated plants ([7]; 200 ppm foliar spray): ≤ 30%

Reference: patent US20150051171A1, “TETRAZOLINONE COMPOUNDS AND ITS USE AS PESTICIDES” (SUMITOMO CHEMICAL COMPANY, LIMITED, priority 2012, published 2015)
